Reference: the supplement of paper PMC7661543
The effect of the compound repeats well; differences between the knockouts mostly do not.

Tested on: SKBR3
Experiment: relative cell number vs DMSO control (72 h) (% of DMSO); higher = less growth inhibition (more cells)
Procedure: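 QMAP-Seq: a pool of 5 breast cancer cell lines (ZR-75-1, SKBR3, HCC-38, MDA-MB-231, BT-20), each carrying 12 doxycycline-inducible Cas9 sgRNA perturbations (11 knockouts plus non-targeting sgNT), was treated with compounds for 72 h at four 10-fold doses (10 nM-10 uM or 1 nM-1 uM range). Barcodes were amplified and sequenced, and cell number was interpolated from 293T spike-in standard curves. The result is expressed as % of the median of DMSO wells. Two biological replicates.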

Cc1sc2c(c1C)C(c1ccc(Cl)cc1)=N[C@@H](CC(=O)OC(C)(C)C)c1nnc(C)n1-2 [(+)-JQ1]
Conditions | relative cell number
sgRNA knockout: sgATF3, 10 nM | 117
sgRNA knockout: sgATF3, 100 nM | 119
sgRNA knockout: sgATF3, 1000 nM | 94.7
sgRNA knockout: sgATF3, 10000 nM | 71.3
sgRNA knockout: sgATF4, 10 nM | 105
sgRNA knockout: sgATF4, 100 nM | 125
sgRNA knockout: sgATF4, 1000 nM | 113
sgRNA knockout: sgATF4, 10000 nM | 75.5
sgRNA knockout: sgATF6, 10 nM | 113
sgRNA knockout: sgATF6, 100 nM | 104
sgRNA knockout: sgATF6, 1000 nM | 101
sgRNA knockout: sgATF6, 10000 nM | 57.5
sgRNA knockout: sgATG7, 10 nM | 91.8
sgRNA knockout: sgATG7, 100 nM | 119
sgRNA knockout: sgATG7, 1000 nM | 85.6
sgRNA knockout: sgATG7, 10000 nM | 52.6
sgRNA knockout: sgERN1, 10 nM | 122
sgRNA knockout: sgERN1, 100 nM | 115
sgRNA knockout: sgERN1, 1000 nM | 99.6
sgRNA knockout: sgERN1, 10000 nM | 73
sgRNA knockout: sgHSF1, 10 nM | 71.1
sgRNA knockout: sgHSF1, 100 nM | 128
sgRNA knockout: sgHSF1, 1000 nM | 105
sgRNA knockout: sgHSF1, 10000 nM | 69.4
sgRNA knockout: sgHSF2, 10 nM | 102
sgRNA knockout: sgHSF2, 100 nM | 106
sgRNA knockout: sgHSF2, 1000 nM | 99
sgRNA knockout: sgHSF2, 10000 nM | 66.4
sgRNA knockout: sgKEAP1, 10 nM | 118
sgRNA knockout: sgKEAP1, 100 nM | 96.5
sgRNA knockout: sgKEAP1, 1000 nM | 92.1
sgRNA knockout: sgKEAP1, 10000 nM | 47.58
sgRNA knockout: sgNFE2L2, 10 nM | 104.2
sgRNA knockout: sgNFE2L2, 100 nM | 111
sgRNA knockout: sgNFE2L2, 1000 nM | 91.6
sgRNA knockout: sgNFE2L2, 10000 nM | 59.9
sgRNA knockout: sgSLC35F2, 10 nM | 103
sgRNA knockout: sgSLC35F2, 100 nM | 105
sgRNA knockout: sgSLC35F2, 1000 nM | 94.6
sgRNA knockout: sgSLC35F2, 10000 nM | 50.2
sgRNA knockout: sgXBP1, 10 nM | 108
sgRNA knockout: sgXBP1, 100 nM | 102
sgRNA knockout: sgXBP1, 1000 nM | 89.7
sgRNA knockout: sgXBP1, 10000 nM | 73.7

CN(C)CC[C@H](CSc1ccccc1)Nc1ccc(S(=O)(=O)NC(=O)c2ccc(N3CCN(Cc4ccccc4-c4ccc(Cl)cc4)CC3)cc2)cc1[N+](=O)[O-] [ABT737]
Conditions | relative cell number
sgRNA knockout: sgATF3, 10 nM | 100
sgRNA knockout: sgATF3, 100 nM | 101
sgRNA knockout: sgATF3, 1000 nM | 113
sgRNA knockout: sgATF3, 10000 nM | 79.2
sgRNA knockout: sgATF4, 10 nM | 116
sgRNA knockout: sgATF4, 100 nM | 81
sgRNA knockout: sgATF4, 1000 nM | 101
sgRNA knockout: sgATF4, 10000 nM | 78
sgRNA knockout: sgATF6, 10 nM | 114
sgRNA knockout: sgATF6, 100 nM | 79.3
sgRNA knockout: sgATF6, 1000 nM | 93.689
sgRNA knockout: sgATF6, 10000 nM | 66.5
sgRNA knockout: sgATG7, 10 nM | 109
sgRNA knockout: sgATG7, 100 nM | 112
sgRNA knockout: sgATG7, 1000 nM | 92.5
sgRNA knockout: sgATG7, 10000 nM | 80.1
sgRNA knockout: sgERN1, 10 nM | 109
sgRNA knockout: sgERN1, 100 nM | 108
sgRNA knockout: sgERN1, 1000 nM | 99.6
sgRNA knockout: sgERN1, 10000 nM | 103
sgRNA knockout: sgHSF1, 10 nM | 83.8
sgRNA knockout: sgHSF1, 100 nM | 97.6
sgRNA knockout: sgHSF1, 1000 nM | 78.5
sgRNA knockout: sgHSF1, 10000 nM | 83
sgRNA knockout: sgHSF2, 10 nM | 109
sgRNA knockout: sgHSF2, 100 nM | 106
sgRNA knockout: sgHSF2, 1000 nM | 89.3
sgRNA knockout: sgHSF2, 10000 nM | 81.5
sgRNA knockout: sgKEAP1, 10 nM | 104
sgRNA knockout: sgKEAP1, 100 nM | 80.9
sgRNA knockout: sgKEAP1, 1000 nM | 87.7
sgRNA knockout: sgKEAP1, 10000 nM | 75.9
sgRNA knockout: sgNFE2L2, 10 nM | 98.5
sgRNA knockout: sgNFE2L2, 100 nM | 106.3
sgRNA knockout: sgNFE2L2, 1000 nM | 78.7
sgRNA knockout: sgNFE2L2, 10000 nM | 85.4
sgRNA knockout: sgSLC35F2, 10 nM | 97.3
sgRNA knockout: sgSLC35F2, 100 nM | 88.2
sgRNA knockout: sgSLC35F2, 1000 nM | 90.6
sgRNA knockout: sgSLC35F2, 10000 nM | 79.4
sgRNA knockout: sgXBP1, 10 nM | 91.7
sgRNA knockout: sgXBP1, 100 nM | 114
sgRNA knockout: sgXBP1, 1000 nM | 120
sgRNA knockout: sgXBP1, 10000 nM | 87.4

Clc1ccc(C2(c3ccc(-c4cn[nH]c4)cc3)CCNCC2)cc1 [AT7867]
Conditions | relative cell number
sgRNA knockout: sgATF3, 10 nM | 94.7
sgRNA knockout: sgATF3, 100 nM | 89.6
sgRNA knockout: sgATF3, 1000 nM | 58
sgRNA knockout: sgATF3, 10000 nM | 16.5
sgRNA knockout: sgATF4, 10 nM | 95.3
sgRNA knockout: sgATF4, 100 nM | 105
sgRNA knockout: sgATF4, 1000 nM | 75.8
sgRNA knockout: sgATF4, 10000 nM | 11.6
sgRNA knockout: sgATF6, 10 nM | 78.5
sgRNA knockout: sgATF6, 100 nM | 82.4
sgRNA knockout: sgATF6, 1000 nM | 62.9
sgRNA knockout: sgATF6, 10000 nM | 9.27
sgRNA knockout: sgATG7, 10 nM | 109
sgRNA knockout: sgATG7, 100 nM | 77
sgRNA knockout: sgATG7, 1000 nM | 62.2
sgRNA knockout: sgATG7, 10000 nM | 11.9
sgRNA knockout: sgERN1, 10 nM | 84.7
sgRNA knockout: sgERN1, 100 nM | 127
sgRNA knockout: sgERN1, 1000 nM | 72.8
sgRNA knockout: sgERN1, 10000 nM | 15.2
sgRNA knockout: sgHSF1, 10 nM | 94.8
sgRNA knockout: sgHSF1, 100 nM | 81.1
sgRNA knockout: sgHSF1, 1000 nM | 52.8
sgRNA knockout: sgHSF1, 10000 nM | 12.1
sgRNA knockout: sgHSF2, 10 nM | 106
sgRNA knockout: sgHSF2, 100 nM | 88.2
sgRNA knockout: sgHSF2, 1000 nM | 74.8
sgRNA knockout: sgHSF2, 10000 nM | 12.2
sgRNA knockout: sgKEAP1, 10 nM | 86.4
sgRNA knockout: sgKEAP1, 100 nM | 80.9
sgRNA knockout: sgKEAP1, 1000 nM | 78.4
sgRNA knockout: sgKEAP1, 10000 nM | 11
sgRNA knockout: sgNFE2L2, 10 nM | 100
sgRNA knockout: sgNFE2L2, 100 nM | 85.08
sgRNA knockout: sgNFE2L2, 1000 nM | 73.5
sgRNA knockout: sgNFE2L2, 10000 nM | 11.5
sgRNA knockout: sgSLC35F2, 10 nM | 101.7
sgRNA knockout: sgSLC35F2, 100 nM | 84.3
sgRNA knockout: sgSLC35F2, 1000 nM | 80.2
sgRNA knockout: sgSLC35F2, 10000 nM | 12.3
sgRNA knockout: sgXBP1, 10 nM | 95.8
sgRNA knockout: sgXBP1, 100 nM | 108
sgRNA knockout: sgXBP1, 1000 nM | 63
sgRNA knockout: sgXBP1, 10000 nM | 15.8
